Source: paper PMC4957108
These are yes or no findings as the source states them, for the method shown.

How the values were obtained:
[1] = target: CagA-2CM^W (Helicobacter pylori strain 26695) (UniProt P55980); test: SEC; Superdex 200 10/300 GL, HBS-P running buffer, 4 °C, 0.5 ml/min; CagA constructs alone or mixed with PAR1b (39–364) at a molar ratio of 1:1 or 1:2; fractions on SDS-PAGE, CBB bands quantified; both purified
[2] = target: CagA-C1164S (Helicobacter pylori strain 26695) (UniProt P55980); test: AUC; sedimentation velocity, 20 °C, 10 mM HEPES pH 7.7, 150 mM NaCl, 1 mM EDTA; 5.5 μM CagA-CS, 11 μM PAR1b (39–364), alone or mixed; c(s) by SEDFIT; both purified

Row | Substance | binding [1] | binding [2]
1 | CagA-2CM^W (from UniProt P55980 1-1186) | no binding | –
2 | CagA-C1164S (from UniProt P55980 1-1186) | – | no binding (tested: 5.5 μM)
